Results from patent US20160138049A1, “OXYGEN-TOLERANT CoA-ACETYLATING [sequence] DEHYDROGENASE CONTAINING PATHWAY FOR BIOFUEL PRODUCTION” (The Regents of the University of California, priority 2013, published 2016).
The name of at least one read-out is uncertain.

B1: Lactobacillus brevis PduP, CoA-acylating propionaldehyde dehydrogenase (PduP_L.bre, YP_795711, SEQ ID NO:47 and 48), poly-His6 tagged (Levilactobacillus brevis … (protein)
chain: MNTENIEQAIRKILSEELSNPQSSTATNTTVPGKNGIFKTVNEAIAATKAAQENYADQPISVRNKVIDAIREGFRPYIEDMAKRIHDETGMGTVSAKIAKLNNALYNTPGPEILQPEAETGDGGLVMYEYAPFGVIGAVGPSTNPSETVIANAIMMLAGGNTLFFGAHPGAKNITRWTIEKLNELVADATGLHNLVVSLETPSIESVQEVMQHPDVAMLSITGGPAVVHQALISGKKAVGAGAGNPPAMVDATANIALAAHNIVDSAAFDNNILCTAEKEVVVEAAVKDELIMRMQQEGAFLVTDSADIEKLAQMTIGPKGAPDRKFVGKDATYILDQAGISYTGTPTLIILEAAKDHPLVTTEMLMPILPVVCCPDFDSVLATATEVEGGLHHTASIHSENLPHINKAAHRLNTSIFVVNGPTYCGTGVATNGAHSGASALTIATPTGEGTATSKTYTRRRRLNSPEGFSLRTWEA
B2: L. mon: PduP homologue from Listeria monocytigenes, NP_464690; SEQ ID NO:49 and 50 (protein)
chain: MESLELEKLVKKVLLEKLAEQKGIPVKTMTKGAKSGVFDTVDEAVQAAVIAQNSYKEKSLEERRNVVKAIREALYPEIESIAARAVAETGMGNVADKILKNTLAIEKTPGVEDLYTEVATGDNGMTLYELSPYGVIGAVAPSTNPTETLICNTIGMLAAGNAVFYSPHPGAKNISLWLIEKLNTIVRESCGVDNLVVTVEKPSIQAAQEMMNHPKVPLLVITGGPGVVLQAMQSGKKVIGAGAGNPPSIVDETANIEKAAADIVDGASFDHNILCIAEKSVVAVDSIADFLMFQMEKNGALHVTNPSDIQKLEKVAVTDKGVTNKKLVGKSASEILKEAGIACDFSPRLIIVETEKTHPFATVELLMPIVPVVRVPNFEEALEVAIELEQGLHHTATMHSQNISRLNKAARDMQTSIFVKNGPSFAGLGFRGEGSTTFTIATPTGEGTTTARHFARRRRCVLTDGFSIR
modifications: Listeria monocytogenes
B3: P. gin: PduP homologue from Porphyromonas gingivalis, YP_001928839; SEQ ID NO:51 and 52 (protein, listed as Porphyromonas gingivalis)
chain: MEIKEMVSLARKAQKEYQATHNQEAVDNICRAAAKVIYENAAILAREAVDETGMGVYEHKVAKNQGKSKGVWYNLHNKKSVGILNIDERTGMIEIAKPIGVVGAVTPTTNPIVTPMSNIIFALKTCNAIIIAPHPRSKKCSAHAVRLIKEAIAPFNVPEGMVQIIEEPSIEKTQELMGAVDVVVATGGMGMVKSAYSSGKPSFGVGAGNVQVIVDSNIDFEAAAEKIITGRAFDNGIICSGEQSIIYNEADKEAVFTAFRNHGAYFCDEAEGDRARAAIFENGAIAKDVVGQSVAFIAKKANINIPEGTRILVVEARGVGAEDVICKEKMCPVMCALSYKHFEEGVEIARTNLANEGNGHTCAIHSNNQAHIILAGSELTVSRIVVNAPSATTAGGHIQNGLAVTNTLGCGSWGNNSISENFTYKHLLNISRIAPLNSSIHIPDDKEIWEL
B4: S. ent: CoA-acylating propionaldehyde dehydrogenase (PduP) from Salmonella enterica, AAD39015; SEQ ID NO:33 and 34 (protein, listed as Salmonella enterica)
chain: MNTSELETLIRTILSEQLTTPAQTPVQPQGKGIFQSVSEAIDAAHQAFLRYQQCPLKTRSAIISAMRQELTPLLAPLAEESANETGMGNKEDKFLKNKAALDNTPGVEDLTTTALTGDGGMVLFEYSPFGVIGSVAPSTNPTETIINNSISMLAAGNSIYFSPHPGAKKVSLKLISLIEEIAFRCCGIRNLVVTVAEPTFEATQQMMAHPRIAVLAITGGPGIVAMGMKSGKKVIGAGAGNPPCIVDETADLVKAAEDIINGASFDYNLPCIAEKSLIVVESVAERLVQQMQTFGALLLSPADTDKLRAVCLPEGQANKKLVGKSPSAMLEAAGIAVPAKAPRLLIALVNADDPWVTSEQLMPMLPVVKVSDFDSALALALKVEEGLHHTAIMHSQNVSRLNLAARTLQTSIFVKNGPSYAGIGVGGEGFTTFTIATPTGEGTTSARTFARSRRCVLTNGFSIR
B5: K. pne: PduP homologue from Klebsiella pneumoniae, YP_001336844; SEQ ID NO:45 and 46 (protein, listed as Klebsiella pneumoniae)
chain: MNTAELETLIRTILSEKLAPTPPAPQQEQGIFCDVGSAIDAAHQAFLRYQQCPLKTRSAIISALRETLAPELATLAEESATETGMGNKEDKYLKNKAALENTPGIEDLTTSALTGDGGMVLFEYSPFGVIGAVAPSTNPTETIINNSISMLAAGNSVYFSPHPGAKKVSLKLIARIEEIAYRCSGIRNLVVTVAEPTFEATQQMMSHPLIAVLAITGGPGIVAMGMKSGKKVIGAGAGNPPCIVDETADLVKAAEDIISGAAFDYNLPCIAEKSLIVVASVADRLIQQMQDFDALLLSRQEADTLRAVCLPDGAANKKLVGKSPAALLAAAGLAVPPRPPRLLIAEVEANAPWVTCEQLMPVLPIVRVADFDSALALALRVEEGLHHTAIMHSQNVSRLNLAARTLQTSIFVKNGPSYAGIGVGGEGFTTFTIATPTGEGTTSARTFARLRRCVLTNGFSIR

Columns and labels:
[1] = CoA-acylating aldehyde dehydrogenase (PduP) assay, kinetic parameters with acetyl-CoA; type: biochemical; details: catalytic efficiency
[2] = CoA-acylating aldehyde dehydrogenase (PduP) assay, butyryl-CoA reduction; type: biochemical; details: catalytic efficiency
Protocol: Protein purification was done by using His-Spin Protein miniprep purification kit from Zymo following manufacturer's manual. Overnight culture of E. coli strain BL-21(DE3) harboring different pCDF-pdup plasmid was used to inoculate fresh 20 ml LB. The newly inoculated culture was incubated at 37° C. until OD600 nm reaches 0.6 which was then induced with 1 mM IPTG. The induced cultures were then incubated overnight in 30° C. rotary shaker to allow protein expression. The cultures were then harvested by centrifugation at 4,300×g for 20 min. The pellet was then resuspended with 1 mL of Zymo His-binding buffer and mixed with 1 mL of 0.1 mm glass beads (Biospec). The sample was then homogenated using TissueLyser II (Quiagen).
Enzyme assays were conducted by using Bio-Tek PowerWave XS microplate spectrophotometer. CoA-acylating aldehyde dehydrogenase activity was measured by the decrease of absorbance at 340 nm, corresponding to depletion of NADH. […] For determining specific activity for other chain length acyl-CoA, 500 μM was used. The mixture excluding acyl-CoA was incubated for 5 minutes at 30° C. The addition of the acyl-CoA initiated the reaction. kcat and Km were determined by nonlinear regression fitting to Michaelis-Menten equation using graphing software Origin.
To characterize these PduP homologues, plasmids harboring individual pduP genes were constructed with a poly-His6 tag (plasmids pCDF-pduP_ahyd, pCDF-pdup_kpne, pCDF-pdup_lbre, pCDF-pdup_lmon, pCDF-pdup_sent, and pCDF-pdup_pgin). PduP homologues were then purified under aerobic condition without cleaving off His tags. The activities of the enzymes were determined using acyl-CoA with different chain lengths, and the disappearance of NADH was monitored.
The efficiency of these PduP homologues were assessed.

Molecule | kcat/Km, Acetyl-CoA [1] [M⁻¹ s⁻¹] | kcat/Km, Butyryl-CoA [2] [M⁻¹ s⁻¹]
B1 | 3000 | 6000
B2 | 122000 | 167000
B3 | 1100 | 700
B4 | 43000 | 292000
B5 | 25000 | 125000
